Measurements as given in PMC10887741.
No constants are given. Whether binding was seen depends on the method and setting. For some of these results: In cells and extracts the contact can be indirect. Some results given as binding are weak or reduced against the parent protein; the word gives no strength. For some of these results: Where a sequence is shown, tags or fusion partners need not be part of it. Values belong to the molecule of their own block, whether it stands above or below them.

Protein sequences, listed by entry. Tags and fused reporters are not part of them.
UniProt Q8NFJ6: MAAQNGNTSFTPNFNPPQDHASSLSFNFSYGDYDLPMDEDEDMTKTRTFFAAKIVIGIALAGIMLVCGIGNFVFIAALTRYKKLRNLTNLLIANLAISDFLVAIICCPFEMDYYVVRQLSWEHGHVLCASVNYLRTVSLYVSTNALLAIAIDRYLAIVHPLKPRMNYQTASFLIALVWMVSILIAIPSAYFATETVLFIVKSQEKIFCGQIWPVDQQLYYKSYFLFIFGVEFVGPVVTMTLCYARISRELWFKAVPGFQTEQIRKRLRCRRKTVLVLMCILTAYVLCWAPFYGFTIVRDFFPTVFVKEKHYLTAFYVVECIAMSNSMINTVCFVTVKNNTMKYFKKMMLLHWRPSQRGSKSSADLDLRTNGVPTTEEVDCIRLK
UniProt Q8TCW9: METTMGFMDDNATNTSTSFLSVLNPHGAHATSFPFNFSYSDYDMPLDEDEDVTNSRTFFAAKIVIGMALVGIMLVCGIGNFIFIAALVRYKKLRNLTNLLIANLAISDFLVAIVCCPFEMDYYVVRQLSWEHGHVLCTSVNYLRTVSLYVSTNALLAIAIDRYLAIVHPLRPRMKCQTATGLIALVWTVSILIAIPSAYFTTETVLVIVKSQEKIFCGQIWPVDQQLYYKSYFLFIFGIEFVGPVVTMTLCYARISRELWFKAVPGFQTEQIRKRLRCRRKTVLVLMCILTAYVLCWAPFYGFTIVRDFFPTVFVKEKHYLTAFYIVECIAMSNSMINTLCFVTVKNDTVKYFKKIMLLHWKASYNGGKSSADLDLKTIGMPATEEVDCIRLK
UniProt P32121: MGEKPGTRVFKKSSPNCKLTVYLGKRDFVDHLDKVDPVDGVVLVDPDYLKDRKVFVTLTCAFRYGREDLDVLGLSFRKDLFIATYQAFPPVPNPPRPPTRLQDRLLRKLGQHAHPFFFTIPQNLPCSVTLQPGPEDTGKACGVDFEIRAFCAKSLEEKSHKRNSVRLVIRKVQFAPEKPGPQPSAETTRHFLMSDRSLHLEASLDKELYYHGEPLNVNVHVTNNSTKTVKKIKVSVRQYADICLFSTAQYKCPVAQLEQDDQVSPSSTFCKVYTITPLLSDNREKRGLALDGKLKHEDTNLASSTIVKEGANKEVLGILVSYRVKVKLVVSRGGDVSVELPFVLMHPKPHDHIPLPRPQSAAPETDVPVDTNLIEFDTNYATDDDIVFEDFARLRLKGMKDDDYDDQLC

Key:
[1] = target: T1, CT-MRAP2 (C-terminal domain of MRAP2, residues 78-204) (human) (UniProt Q96G30); test: co-IP; total proteins from E. coli co-expressing CT-MRAP2 FLAG and His-tagged β-arrestin-2 or p44; FLAG bind resin, native conditions; blots with anti-FLAG and anti-His
T1 sequence: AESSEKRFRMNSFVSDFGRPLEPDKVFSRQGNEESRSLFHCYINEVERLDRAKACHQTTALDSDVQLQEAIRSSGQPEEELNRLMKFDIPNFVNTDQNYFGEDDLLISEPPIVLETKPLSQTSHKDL

[2] = target: T2, hMRAP2-Glutathione S-Transferase (hMRAP2-GST) (human) (UniProt Q96G30); test: pull-down; GST fusion protein held on glutathione-Sepharose beads, buffer A (PBS, 1% Nonidet P 40, 1 mM EDTA), incubated with purified His-tagged protein from E. coli; eluted with GSH, Western blot; both purified
T2 sequence: T1 sequence

[3] = target: luminescent PKR2 (PKR2-rLuc) (UniProt Q8NFJ6); test: FRET or BRET; BRET in CHO cells stably expressing rGFP-β-arrestin-2, transiently transfected with a constant amount of receptor-rLuc and increasing amounts of MRAP2 vector; 5 μM coelenterazine in PBS; without or with PK2
[4] = target: luminescent PKR1 (PKR1-rLuc) (UniProt Q8TCW9); test: as above
[5] = target: β-arrestin-2-GST fusion protein (UniProt P32121); test: pull-down; GST fusion protein held on glutathione-Sepharose beads, buffer A (PBS, 1% Nonidet P 40, 1 mM EDTA), incubated with purified His-tagged protein from E. coli; eluted with GSH, Western blot; both purified
[6] = target: WT PKR2 (UniProt Q8NFJ6); test: cross-linking; CHO cells co-expressing MRAP2 and WT PKR2 or PKR2-ΔC52 incubated with dithiobis(succinimidyl propionate) (2 mM); membrane proteins on SDS-PAGE, blot with anti-PKR2

binding [1]: binds | binding [2]: binds
Molecule: β-arrestin-2 with His TAG (from UniProt P32121 1-409)

binding [3]: binds | binding [4]: binds
Molecule: fluorescent β-arrestin-2 (GFP-β-arrestin-2) (from UniProt P32121 1-409)

binding [5]: binds
B1: CT-MRAP2 (C-terminal domain of MRAP2, residues 78-204) (domain or fragment, UniProt Q96G30 78-204)
chain: T1 sequence

binding [5]: binds
B2: 131CT-MRAP2 deletion mutant (domain or fragment, UniProt Q96G30 78-131)
chain: AESSEKRFRMNSFVSDFGRPLEPDKVFSRQGNEESRSLFHCYINEVERLDRAKA

binding [6]: binds
B3: Melanocortin receptor accessory protein 2 (MRAP2) (protein, UniProt Q96G30 1-205)
chain: MSAQRLISNRTSQQSASNSDYTWEYEYYEIGPVSFEGLKAHKYSIVIGFWVGLAVFVIFMFFVLTLLTKTGAPHQDNAESSEKRFRMNSFVSDFGRPLEPDKVFSRQGNEESRSLFHCYINEVERLDRAKACHQTTALDSDVQLQEAIRSSGQPEEELNRLMKFDIPNFVNTDQNYFGEDDLLISEPPIVLETKPLSQTSHKDLD
